Assay results reported in PubChem BioAssay AID1487 (National Center for Advancing Translational Sciences (NCATS), 2009).
Values joined by “and” are separate entries in the source; they are usually repeats but may differ in a detail not shown here. Identical values can stand only once. The list shows a part of the results. Further columns of the screen follow, without active or inactive calls. The list favours compounds with an active or inconclusive main result. Potencies come from curve fits of mixed quality, noted in brackets.

Assay: qHTS Assay for Modulators of Lamin A Splicing
Conditions: HeLa LMNA splicing GFP/RFP minigene ratio, 48 h
Summary of the method: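 S3 HeLa cells stably expressing lamin A-EGFP splicing minigene plus DsRed2, 600 cells/well, 48 h compound exposure at 37C. Laser-scanning cytometry; analysed as GFP (500-530 nm)/RFP (575-640 nm) total intensity ratio; 0.5% DMSO vehicle.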

[1] = measured here: GFP splicing reporter channel
[2] = measured here: RFP viability control channel

Compound: CCN(CC)C(=O)c1sc(NC(=O)C(C)C)c(C#N)c1C
- AC50 [1]: 3.98 µM [rising, partial curve, poor fit]

Compound: c1ccc(-c2ccc3c(c2)c2c4n3CCN=C4CCC2)cc1
- AC50 [2]: 35.5 µM [falling, single point]

Compound: Cc1[nH]n(-c2ccccc2)c(=S)c1C=NCCCN=Cc1c(C)[nH]n(-c2ccccc2)c1=S
- AC50 [2]: 35.5 µM [rising, single point]

Compound: O=C1NN(c2ccccc2)C(=O)/C1=C/c1ccc(-c2ccc(Cl)c(C(=O)O)c2)o1
- AC50 [1]: 15.8 µM [rising, single point]

Compound: O=C(N/N=C/c1ccccn1)c1ccc(NC(=O)c2cccc([N+](=O)[O-])c2)cc1
- AC50 [1]: 11.2 µM [falling, partial curve]
- AC50 [2]: 11.2 µM [falling, partial curve]

Compound: Cc1ccccc1Oc1nc2c(C)cccn2c(=O)c1/C=C(\C#N)C(=O)Nc1c(C)n(C)n(-c2ccccc2)c1=O
- AC50 [2]: 20 µM [rising, partial curve, poor fit]

Compound: CC(=O)c1c(C)[nH]c(C(=O)CN2C(=O)NC(C)(c3ccc(C)cc3)C2=O)c1C (stereo not given)
- AC50 [1]: 1.58 µM [falling, full curve, poor fit]
- AC50 [2]: 1.78 µM [falling, full curve, poor fit]

Compound: CCCCn1c(SCc2ccccc2C)nc2ccsc2c1=O
- AC50 [2]: 35.5 µM [rising, single point]

Compound: c1ccc(CN2CCC(Nc3nc(-c4cccs4)nc4ccccc34)CC2)cc1
- AC50 [1]: 11.2 µM [falling, partial curve]
- AC50 [2]: 35.5 µM [falling, single point]

Compound: O=C(COC(=O)c1ccccc1)NCc1cccs1
- AC50 [2]: 2 µM [rising, full curve, poor fit]

Compound: Cc1ccc(NC(=S)NC(NC(=O)N(C)C)C(Cl)(Cl)Cl)cc1 (stereo not given)
- AC50 [2]: 0.141 µM [rising, full curve, poor fit]

Compound: CC(C)(C)NC(=O)NC(=O)CN1CCN(c2ncc(C(F)(F)F)cc2Cl)CC1
- AC50 [2]: 20 µM [rising, single point]

Compound: Cc1cccc(OCCSc2cc(C)nc(N)n2)c1
- AC50 [1]: 35.5 µM [rising, single point]
- AC50 [2]: 35.5 µM [rising, single point]

Compound: COc1ccc(CNC(=O)CC(C)CC2=NS(=O)(=O)c3ccccc3N2)cc1 (stereo not given)
- AC50 [2]: 4.47 µM [falling, full curve, poor fit]

Compound: C=C(C)CNC(=S)Nc1cccc2cnccc12
- AC50 [2]: 12.6 µM [rising, partial curve]

Compound: COc1ccc(NC(=O)CCC(=O)NCCO)cc1
- AC50 [2]: 8.91 µM [falling, partial curve]

Compound: CC(C)(C)OC(=O)N/N=C/c1cccc([N+](=O)[O-])c1
- AC50 [1]: 0.0891 µM [falling, full curve, poor fit]

Compound: CCN1CCN(C(=S)Nc2ccc(Cl)cc2)CC1
- AC50 [1]: 14.1 µM [rising, partial curve, poor fit]
- AC50 [2]: 12.6 µM [rising, partial curve]

Compound: CSC1=C(C#N)C(C)C2=C(CC(C)(C)CC2=O)N1 (stereo not given)
- AC50 [1]: 31.6 µM [rising, single point]
- AC50 [2]: 35.5 µM [rising, single point]

Compound: Cc1cccc(Nc2nnc(SCc3cn4ccsc4n3)s2)c1
- AC50 [1]: 35.5 µM [rising, single point]
- AC50 [2]: 31.6 µM [rising, single point]

Compound: Cc1ccc(-c2noc(CN(C)C(=O)Nc3ccc(F)cc3)n2)cc1
- AC50 [2]: 0.0447 µM [rising, full curve, poor fit]

Compound: Cc1cccc(COCC(Cc2ccccc2)N2CCN(C(=O)c3cccc(Cl)c3)CCC2=O)c1 (stereo not given)
- AC50 [1]: 14.1 µM [rising, partial curve]
- AC50 [2]: 15.8 µM [rising, partial curve]

Compound: O=S(=O)(NC1CCCCC1Oc1ccccc1)c1ccc(Cl)cc1 (stereo not given)
- AC50 [1]: 12.6 µM [rising, partial curve, poor fit]
- AC50 [2]: 25.1 µM [rising, single point]

Compound: O=C(CSc1ccc2ccccc2n1)N1CCC(c2noc3ccc(F)cc23)CC1
- AC50 [2]: 14.1 µM [rising, single point]

Compound: COc1ccc(S(=O)(=O)NCC2CCCN(CC(C)(C)C)C2)cc1 (stereo not given)
- AC50 [1]: 35.5 µM [rising, single point]

Compound: O=C(O)CC/C(=N\Nc1ccc([N+](=O)[O-])cc1)c1ccccc1
- AC50 [2]: 0.251 µM [falling, full curve, poor fit]

Compound: CCOC(=O)c1cc(-c2ccccc2)sc1NC(=O)CC
- AC50 [2]: 7.94 µM [rising, partial curve, poor fit]

Compound: C=CCS/C(=N\n1cnc2ccccc2c1=O)N1CCCCC1
- AC50 [2]: 15.8 µM [rising, single point]

Compound: O=C(N/N=C/c1cc([N+](=O)[O-])ccc1O)c1ccc2c(c1)OCCO2
- AC50 [2]: 5.62 µM [rising, partial curve]

Compound: CC1CCc2c(sc3nc(SCC(=O)NCc4ccco4)nc(N)c23)C1 (stereo not given)
- AC50 [1]: 5.01 µM [rising, partial curve]
- AC50 [2]: 12.6 µM [rising, partial curve]

Compound: COc1ccc(OC)c(C2=Nn3c(nnc3-c3cccc(OC(C)C)c3)SC2)c1
- AC50 [2]: 5.01 µM [rising, partial curve]

Compound: CCn1cc(Br)c(C(=O)NC(=S)Nc2ccc(C(=O)OC)cc2)n1
- AC50 [2]: 0.00447 µM [falling, full curve, poor fit]

Compound: CC1CCc2nc(NC(=O)C3COc4ccccc4O3)sc2C1 (stereo not given)
- AC50 [1]: 31.6 µM [rising, single point]
- AC50 [2]: 25.1 µM [rising, partial curve]

Compound: O=C(Nc1ccc(Oc2cccc3ccccc23)cc1)c1ccco1
- AC50 [1]: 12.6 µM [rising, single point]
- AC50 [2]: 11.2 µM [rising, single point]

Compound: Cc1nnc(SC(=O)N2c3ccccc3Sc3ccccc32)s1
- AC50 [1]: 35.5 µM [falling, single point]
- AC50 [2]: 15.8 µM [falling, single point]

Compound: Cc1nc(CNS(=O)(=O)c2ccc3c(c2)CCCC3)cs1
- AC50 [2]: 17.8 µM [rising, partial curve]

Compound: COc1cc2nc(=S)n(CCCN3CCOCC3)c(N)c2cc1OC
- AC50 [2]: 14.1 µM [falling, single point]

Compound: CCCn1ccc2c(OCC(=O)Nc3ccccc3C(=O)OCC)cccc2c1=O
- AC50 [2]: 35.5 µM [falling, single point]

Compound: O=C(c1cc(N2C(=O)C3C4CCC(C4)C3C2=O)ccc1Cl)N1CCN(c2ccccc2)CC1 (stereo not given)
- AC50 [1]: 35.5 µM [rising, single point]
- AC50 [2]: 35.5 µM [rising, single point]

Compound: Cc1ccc2nc(NC(=O)CSc3cc(C)[nH]c(=O)n3)sc2c1
- AC50 [2]: 0.0355 µM [rising, full curve]

Compound: CC(=O)c1ccc(NC(=O)C2CCN(S(=O)(=O)c3c(C)noc3/C=C/c3ccc(C)cc3)CC2)cc1
- AC50 [1]: 22.4 µM [falling, partial curve, poor fit]

Compound: COc1ccc(C(=O)CC(=O)C(=O)NCCc2cccc(C)c2)cc1
- AC50 [2]: 35.5 µM [rising, single point]

Compound: CC(=O)n1c2c(c3ccccc31)OC(N)=C(C#N)C2c1ccc(C(C)C)cc1 (stereo not given)
- AC50 [1]: 17.8 µM [falling, single point]
- AC50 [2]: 25.1 µM [falling, single point]

Compound: Cc1nnc(C)c2c(C)n(C(C)c3ccccc3)c(C)c12 (stereo not given)
- AC50 [1]: 11.2 µM [rising, single point]
- AC50 [2]: 11.2 µM [rising, single point]

Compound: O=C(CSc1nc(-c2cccs2)cc(C(F)(F)F)n1)Nc1cc(OCC(F)(F)C(F)F)cc([N+](=O)[O-])c1
- AC50 [1]: 10 µM [rising, partial curve, poor fit]
- AC50 [2]: 11.2 µM [rising, partial curve, poor fit]

Compound: CCOC(=O)C(=CN=C(N)Nc1nc2ccccc2o1)C(=O)OCC
- AC50 [1]: 0.1 µM [rising, full curve, poor fit]

Compound: COc1ccc(Cn2c(-c3ccc(OC)cc3)nc3ccccc32)cc1
- AC50 [1]: 10 µM [rising, single point]
- AC50 [2]: 22.4 µM [rising, single point]

Compound: O=C(COC(=O)c1ccccc1C(=O)N1CCN(c2ccc(F)cc2)CC1)NCc1ccccc1
- AC50 [1]: 0.891 µM [falling, full curve, poor fit]

Compound: Cc1ccc(C)c(-n2nnnc2SCC(=O)Nc2cccc(-c3nnc4n3CCCCC4)c2)c1
- AC50 [1]: 11.2 µM [rising, partial curve]
- AC50 [2]: 12.6 µM [rising, single point]

Compound: Cc1cc(C)n(-c2ccn(Cc3ccc(Cl)cc3Cl)c(=O)n2)n1
- AC50 [1]: 14.1 µM [rising, partial curve]
- AC50 [2]: 15.8 µM [rising, partial curve]

Compound: Cc1nn(Cc2ccc(Cl)c(Cl)c2)c(C)c1NC(=O)c1cc(-c2ccc3c(c2)OCO3)on1
- AC50 [1]: 3.16 µM [rising, single point]
- AC50 [2]: 5.01 µM [rising, single point]

Compound: O=C(/C(=N\Nc1ccc(Br)cc1)Sc1nnnn1-c1ccccc1)c1ccccc1
- AC50 [2]: 15.8 µM [rising, partial curve]

Compound: O=C(c1ccc(F)cc1)C1CCN(CCn2c(=O)[nH]c3ccccc3c2=O)CC1
- AC50 [1]: 501 nM [falling, partial curve, poor fit] and 12.6 µM [falling, single point]
- AC50 [2]: 3.55 nM [falling, full curve, poor fit] and 2.51 µM [rising, full curve]
